Test results: publication PMC7910915
Results are given in words; binding and its absence hold for the method and conditions named. In cells and extracts the contact can be indirect.

Columns and labels:
[1] = biological target: HA-tagged RuV capsid R169A/D171A (rubella virus) (UniProt P08563); experiment: co-IP; HEK293T cells co-transfected with Flag-tagged and HA-tagged capsid plasmids (1 μg each), lysed 48 hpt in IP lysis buffer (20 mM Tris, 100 mM NaCl, 0.05% n-dodecyl β-D-maltoside); IP with M2 anti-Flag and protein-A/G agarose at 4 °C for 12 h; Western blotting
[2] = biological target: HA-tagged RuV capsidΔB (rubella virus) (UniProt P08563); experiment: as above

Substance	binding [1]	binding [2]
HA-tagged RuV capsid R169A/D171A (from UniProt P08563 1-300)	no binding	
HA-tagged RuV capsidΔB (from UniProt P08563 1-300)		no binding
